According to patent US20070049592A1, “Bis-aryl urea compounds and methods of use” (priority 2005, published 2007):
Some results were stated once for a whole list of compounds, not compound by compound.

Sequences of proteins named here, by UniProt entry; tags and fusion partners are left off. Residues count along the entry.
UniProt Q02763, 23-1124: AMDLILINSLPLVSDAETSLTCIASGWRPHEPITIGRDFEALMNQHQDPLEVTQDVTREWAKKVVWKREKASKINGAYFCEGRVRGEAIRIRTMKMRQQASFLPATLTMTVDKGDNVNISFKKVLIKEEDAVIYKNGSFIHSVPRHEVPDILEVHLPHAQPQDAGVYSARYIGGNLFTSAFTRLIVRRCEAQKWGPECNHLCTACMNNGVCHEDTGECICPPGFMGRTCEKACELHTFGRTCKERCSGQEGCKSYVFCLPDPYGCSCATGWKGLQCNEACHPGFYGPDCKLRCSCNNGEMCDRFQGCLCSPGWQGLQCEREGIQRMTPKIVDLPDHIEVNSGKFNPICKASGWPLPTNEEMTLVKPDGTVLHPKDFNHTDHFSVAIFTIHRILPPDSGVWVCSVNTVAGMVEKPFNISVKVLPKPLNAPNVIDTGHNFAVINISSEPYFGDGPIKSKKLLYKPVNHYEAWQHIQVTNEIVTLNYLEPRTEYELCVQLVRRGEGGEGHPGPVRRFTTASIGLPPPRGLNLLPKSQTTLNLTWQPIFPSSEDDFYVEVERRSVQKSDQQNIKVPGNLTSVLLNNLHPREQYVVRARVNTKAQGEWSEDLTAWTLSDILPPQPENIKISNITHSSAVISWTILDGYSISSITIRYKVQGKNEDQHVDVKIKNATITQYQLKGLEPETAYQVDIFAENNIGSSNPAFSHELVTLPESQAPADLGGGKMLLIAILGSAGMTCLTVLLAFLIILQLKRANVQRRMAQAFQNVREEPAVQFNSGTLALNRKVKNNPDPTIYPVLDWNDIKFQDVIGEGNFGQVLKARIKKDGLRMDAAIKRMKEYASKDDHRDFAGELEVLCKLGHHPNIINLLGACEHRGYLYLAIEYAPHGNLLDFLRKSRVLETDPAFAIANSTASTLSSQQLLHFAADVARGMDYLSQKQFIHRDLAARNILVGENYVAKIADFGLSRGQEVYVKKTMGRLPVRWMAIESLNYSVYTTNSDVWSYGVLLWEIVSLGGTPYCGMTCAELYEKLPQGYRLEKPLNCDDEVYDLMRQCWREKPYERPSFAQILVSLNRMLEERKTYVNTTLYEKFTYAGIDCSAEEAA
UniProt P06239, 225-509: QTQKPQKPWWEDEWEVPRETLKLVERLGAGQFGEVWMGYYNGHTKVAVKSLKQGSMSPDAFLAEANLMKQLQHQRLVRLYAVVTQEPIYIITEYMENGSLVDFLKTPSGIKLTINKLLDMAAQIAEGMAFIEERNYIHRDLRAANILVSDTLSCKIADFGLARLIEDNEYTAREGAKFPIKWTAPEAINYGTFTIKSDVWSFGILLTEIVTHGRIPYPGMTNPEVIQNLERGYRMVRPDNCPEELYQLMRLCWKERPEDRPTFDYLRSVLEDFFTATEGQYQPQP

Experiments:
Tie-2 kinase enzyme = Tie-2 kinase enzyme (Homo sapiens, UniProt Q02763); assay: Tie-2 Homogenous Time Resolved Flourescent (HTRF) kinase assay; assay type: biochemical; conditions: read-out: IC50's for the inhibition of Tie-2 as measured by the HTRF assay
Lck kinase enzyme = target: T1, Lck kinase enzyme (Homo sapiens, UniProt P06239); assay: LCK Homogenous Time Resolved Flourescent (HTRF) kinase assay; assay type: biochemical; conditions: read-out: average IC50 value in the human HTRF assay for the inhibition of the Lck kinase enzyme
T1 construct: LCK KD GST (225-509); GST

Compound: Cc1ccc(C(=O)Nc2cc(C(F)(F)F)ccc2N2CCCCC2)cc1NC(=O)N(C)c1cc(N(C)C=O)ncn1 [Example 54, 3-((((6-(formyl(methyl)amino-4-pyrimidinyl) (methyl)amino)carbonyl)amino)-4-methyl-N-(2-(1-piperidinyl)-5-(trifluoromethyl)phenyl)benzamide)]
- IC50 (Tie-2 kinase enzyme): ≤ 5 µM
- IC50 (Lck kinase enzyme): ≤ 5 µM
